No constants are given. Whether binding was seen depends on the method and setting. Binding seen in cells or lysates may run through a third protein. A yes stands for co-enrichment or nearness to the bait. Other partners may have been found.
Target: GEMIN5-eGFP (UniProt Q8TEQ6)
Assay: affinity purification with mass spectrometry

Chains of the proteins cited; added tags and fusions are not shown.
UniProt Q8TEQ6, whole entry: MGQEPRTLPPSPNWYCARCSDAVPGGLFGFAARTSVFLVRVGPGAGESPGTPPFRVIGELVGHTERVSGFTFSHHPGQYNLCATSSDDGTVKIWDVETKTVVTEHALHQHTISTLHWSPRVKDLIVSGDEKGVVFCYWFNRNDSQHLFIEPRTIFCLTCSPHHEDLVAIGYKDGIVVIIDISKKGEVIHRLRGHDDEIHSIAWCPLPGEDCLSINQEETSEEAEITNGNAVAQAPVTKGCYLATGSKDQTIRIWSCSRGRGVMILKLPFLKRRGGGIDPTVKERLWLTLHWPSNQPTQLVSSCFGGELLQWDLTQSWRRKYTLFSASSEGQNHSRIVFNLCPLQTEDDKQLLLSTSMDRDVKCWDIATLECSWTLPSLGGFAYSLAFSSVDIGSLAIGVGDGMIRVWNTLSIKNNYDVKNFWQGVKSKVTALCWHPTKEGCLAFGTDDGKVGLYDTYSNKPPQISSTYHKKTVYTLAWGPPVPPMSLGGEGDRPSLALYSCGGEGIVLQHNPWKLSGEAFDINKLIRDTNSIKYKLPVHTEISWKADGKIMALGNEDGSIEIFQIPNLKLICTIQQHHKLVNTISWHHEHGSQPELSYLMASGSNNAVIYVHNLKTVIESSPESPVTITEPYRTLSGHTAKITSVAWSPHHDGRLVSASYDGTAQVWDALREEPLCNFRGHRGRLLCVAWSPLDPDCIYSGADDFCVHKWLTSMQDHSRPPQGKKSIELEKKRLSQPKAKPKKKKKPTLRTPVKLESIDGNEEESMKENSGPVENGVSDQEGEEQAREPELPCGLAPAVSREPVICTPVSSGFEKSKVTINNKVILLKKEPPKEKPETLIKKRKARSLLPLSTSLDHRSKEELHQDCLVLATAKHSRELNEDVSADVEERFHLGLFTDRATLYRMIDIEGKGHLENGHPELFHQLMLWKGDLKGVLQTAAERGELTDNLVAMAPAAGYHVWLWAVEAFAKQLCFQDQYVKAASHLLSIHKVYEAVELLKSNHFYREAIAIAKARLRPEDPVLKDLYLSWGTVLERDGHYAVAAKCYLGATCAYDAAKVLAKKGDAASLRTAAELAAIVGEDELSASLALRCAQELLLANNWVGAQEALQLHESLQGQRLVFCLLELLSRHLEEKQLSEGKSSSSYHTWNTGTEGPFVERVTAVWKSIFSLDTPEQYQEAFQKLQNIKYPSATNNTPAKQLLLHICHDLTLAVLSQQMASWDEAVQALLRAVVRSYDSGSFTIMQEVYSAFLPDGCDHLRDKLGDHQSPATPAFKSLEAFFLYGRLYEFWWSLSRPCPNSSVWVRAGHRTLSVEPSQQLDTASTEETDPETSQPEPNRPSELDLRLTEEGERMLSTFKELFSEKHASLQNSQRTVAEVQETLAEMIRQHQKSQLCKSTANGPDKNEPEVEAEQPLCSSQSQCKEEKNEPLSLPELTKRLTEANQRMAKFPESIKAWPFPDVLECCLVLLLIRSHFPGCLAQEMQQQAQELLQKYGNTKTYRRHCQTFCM

In the case of SINV NSP1 (from UniProt P03317 1-540), the binding is reported as “binds”.

In the case of “SINV NSP2 (from UniProt P03317 541-1347)”, the binding is reported as “binds”.
